# Test results taken from patent publication US10544134B2, “4-substituted coumarin derivatives and preparation methods and uses thereof” (SI CHUAN UNIVERSITY, priority 2015, dated 2020).
# Assays:
# [1] = test system: ovarian cancer cell A2780s; assay: Tumor cell proliferation inhibitory activity test in vitro (MTT); assay type: cell-based; conditions: Homo sapiens, sensitive cells, 72 hours
# From the text: Human non-small cell lung cancer cell line NCI-H460, human small cell lung cancer cell line NCI-H446, human hepatocellular carcinoma cell strain HepG2, human colon carcinoma cell strain HCT116, human prostate cancer PC-3, human melanoma A375, colon carcinoma cell HCT-8, breast cancer cell MCF-7, ovarian cancer cell A2780s, drug-resistant ovarian cancer cell A2780/T, drug-resistant colon cancer cell HCT-8/T and doxorubicin-resistant breast cancer cell MCF-7/ADR are obtained from American Type Culture Collection (ATCC) and are cultured and preserved by the cell bank of State Key Laboratory of Biotherapy of Sichuan University. Above tumor cells are routinely cultured in DMEM culture medium containing 10% fetal bovine serum, 100 U·mL-1 penicillin and 100 mg·L−1 streptomycin, and in an incubator at 37° C. and with saturated humidity and 5% CO2 concentration. […]
# Discard the supernatant after 72 hours, add 200 μL freshly prepared serum-free medium containing 0.2 mg/mL MTT into each well, continue to incubate at 37° C. for 1-4 hours, then stop incubation, carefully remove the culture supernatant in the wells and add 200 uL DMSO (dimethyl sulfoxide), oscillate with a miniature ultrasonic oscillator for 15-20 minutes to make the crystal fully dissolved and mixed. Determine OD values using a microplate reader at 570 nm with a reference wavelength of 450 nm. […]
# HCT-8/V = assay: as above; assay type: cell-based; conditions: Homo sapiens, drug-resistant cells, 72 hours, cells marked (μM)
structure (smiles),measurement,setting,value
"COc1cc2c(c(OC)c1OC)-c1ccc(OC)c(=O)cc1[C@@H](NC(C)=O)CC2 [Colchicine, colchicine]",IC50,[1],30.8 ± 9.88 nM
same,IC50,HCT-8/V,0.144 ± 0.032 µM
